Data as given in PubChem BioAssay AID2685 (National Center for Advancing Translational Sciences (NCATS), 2010).
The other results are listed elsewhere or left out. Shown are side measurements of this screen, not its main read-out; they come without a call. The list favours compounds with an active or inconclusive main result. Words in brackets tell the shape of the fitted curve; partial curves, single points and poor fits give uncertain potencies.

Test: qHTS Assay for Lipid Storage Modulators in Drosophila S3 Cells;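 on cell number change: cells counted by Cell Tracker Red CMTPX staining in the red channel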
Settings: BODIPY lipid droplet fluorescence, 18-24 h; for cell number change: measured here: cell count max response, cells fed with added oleic acid
Procedure, shortened: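 Drosophila S3 cells got compounds at several concentrations plus oleic acid (400 uM solution). Laser-scanning cytometry with 488 nm excitation read lipid droplets at 500-530 nm and cells at 575-640 nm. Percent activity was relative to 20 uM Triacsin C.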

[1] = measured here: cell number channel AC50, cells fed with added oleic acid
[2] = measured here: lipid fluorescence (Fed channel) AC50, cells fed with added oleic acid

Row | SMILES | cell number change [%] | AC50 [1] | AC50 [2]
1 | CO/N=C\CC(=O)Nc1ccc(Cl)c(Cl)c1 | 15.1 | 0.13 µM [falling, full curve, poor fit] | 0.146 µM [falling, full curve, poor fit]
2 | NNc1nc2c(-c3cccc(C(F)(F)F)c3)nnn2c2ccccc12 | -30.7 | 18.4 µM [falling, partial curve] | 18.4 µM [falling, partial curve]
3 | CCn1c(SCc2nc3ccccc3[nH]2)nnc1-c1ccncc1 | 3.17 | – | 14.6 µM [rising, partial curve, poor fit]
4 | C=CCn1c(COc2ccc(F)cc2)nnc1SCC(=O)NC(=O)NCc1ccco1 | -17.6 | 4.61 µM [falling, partial curve, poor fit] | –
5 | CN(CC(=O)Nc1ccc(OC(F)(F)F)cc1)C1CCCCC1 | 1.21 | 0.116 µM [falling, full curve, poor fit] | 0.103 µM [falling, full curve, poor fit]
6 | COc1cc(NC(C)CCc2ccccc2)cc(OC)c1OC (configuration not stated) | -39.7 | 14.6 µM [falling, partial curve, poor fit] | –
7 | COCc1cc(=O)[nH]c2cc(NC(=O)C3CC3)c(C)cc12 | 60.5 | 29.1 µM [rising, single point] | 0.82 µM [rising, single point]
8 | COc1cccc2cc(C(=O)C3=C(O)C(=O)N(CCCN(C)C)C3c3ccncc3)oc12 (configuration not stated) | – | 6.51 µM [rising, partial curve, poor fit] | 1.64 µM [falling, full curve]
9 | CCCCCn1c2c(c(=N)c3ccccc31)CCC2 | -52.6 | 32.6 µM [falling, single point] | 29.1 µM [falling, single point]
10 | COc1cc(OC)c(C(=O)Nc2cccc(C(C)=O)c2)cc1OC | – | 0.326 µM [rising, full curve] | 0.146 µM [rising, full curve, poor fit]
11 | Cc1nn2c(Nc3ccccc3)c3c(nc2c1-c1ccccc1)CCC3 | -31.5 | 29.1 µM [falling, single point] | 32.6 µM [falling, single point]
12 | Cc1cc(SCC(=O)NN=C2CCN(C(C)C)CC2)c(C)cc1Br | 6.58 | – | 5.17 µM [rising, partial curve, poor fit]
13 | COc1ccc(CN(C)S(=O)(=O)c2nnc(NC(=O)c3ccc(C)cc3)s2)cc1OC | -7.41 | – | 0.0058 µM [rising, full curve, poor fit]
14 | CN(C)CC(C)(C)CNS(=O)(=O)c1cccc2nsnc12 | -21.6 | – | 5.8 µM [falling, partial curve, poor fit]
15 | CC(=O)N1CCSc2ccc(S(=O)(=O)NCc3ccc(F)cc3)cc21 | -31.6 | 29.1 µM [falling, single point] | 3.26 µM [falling, partial curve]
16 | COc1ccc(C(=O)CN2CCN(c3ncccn3)CC2)cc1 | -19.8 | – | 25.9 µM [falling, partial curve]
17 | CCc1c(C(=O)Nc2ccccc2C(N)=O)csc1C | 3.52 | 6.51 µM [rising, single point] | –
18 | O=C(Cn1ncn2c(cc3ccccc32)c1=O)NCCc1cccs1 | -16.5 | – | 4.11 µM [rising, full curve, poor fit]
19 | O=C(CCc1ccccc1O)NC1CCCc2ccccc21 (configuration not stated) | -20.8 | – | –
20 | Cc1noc(C)c1COc1ccc(C(=O)N2CCCC(C(N)=O)C2)cc1 (configuration not stated) | 28.4 | – | 5.17 µM [rising, full curve, poor fit]
21 | O=C(NCC(=O)N(c1ccccc1)C(C(=O)NC1CCCC1)c1ccncc1)c1cccs1 (configuration not stated) | – | – | 0.0517 µM [falling, full curve, poor fit]
22 | O=C(COC(=O)CSCC(=O)N1CCCCC1)NCc1ccc(F)cc1 | -0.147 | – | 1.84 µM [falling, full curve]
23 | O=C(CCN1CCN(Cc2ccccc2)CC1)Nc1ccc(OCc2ccccc2)cc1 | -29.4 | – | 0.82 µM [falling, full curve, poor fit]
24 | O=[N+]([O-])c1cc(C(F)(F)F)ccc1Sc1ccc2ccccc2n1 | 6.14 | 0.731 µM [rising, single point] | 0.58 µM [rising, single point]
25 | CNc1nc2ccccc2n1CC(=O)c1ccccc1 | 6.32 | – | 0.58 µM [rising, single point]
26 | Cn1cc(Br)c(C(=O)Nc2sc3c(c2C(N)=O)CCCC3)n1 | -13.2 | – | 0.112 µM [rising, full curve, poor fit]
27 | CC(C)c1ccc2oc(=O)cc(CN3CCCCC3)c2c1 | -7.56 | – | 18.4 µM [falling, single point]
28 | CCCCCCn1nc(C(=O)OCC(=O)c2c(N)n(C)c(=O)n(C)c2=O)c2ccccc2c1=O | -17 | – | 32.6 µM [falling, single point]

Row | SMILES | cell number change [%] | AC50 [1] | AC50 [2]
29 | O=C(Cc1noc2ccccc12)Nc1ccc(Cl)cc1 | 6.37 | – | 0.0326 µM [rising, full curve, poor fit]
30 | O=C(O)COc1ccc(S(=O)(=O)NCCc2ccccc2)cc1 | -26.3 | – | 18.4 µM [falling, single point]
31 | Cc1cccc(C)c1NC(=O)CNC(=O)c1cncc(Br)c1 | 7.89 | – | –
32 | Cc1ccc(S(=O)(=O)N[C@H](C(=O)Oc2ccc3c(C(F)(F)F)cc(=O)oc3c2)c2ccccc2)cc1 | 147 | 0.13 µM [rising, full curve, poor fit] | –
33 | Cc1cc(SCc2ccc(Cl)cc2Cl)nc(=O)[nH]1 | -60.2 | 3.26 µM [falling, partial curve] | –
34 | CCN1CCC2(CC1)C(C#N)=C(N)Oc1c2sc2nc(C)cc(C)c12 | -0.181 | – | 0.82 µM [rising, full curve, poor fit]
35 | CC(=O)N(C1=C(Cl)C(=O)c2ccccc2C1=O)c1ccc(C(=O)O)cc1 | -27 | – | 29.1 µM [falling, single point]
36 | COc1ccc(OCC(=O)Nc2ccccc2C(=O)N2CCCC2)cc1 | -30.7 | 20.6 µM [falling, partial curve, poor fit] | –
37 | Cc1cccc(C(=O)OCC(=O)N(C)CC(=O)Nc2ccc(Cl)c(C(F)(F)F)c2)c1 | 8.48 | – | 6.51 µM [rising, single point]
38 | CC1CCc2nn(CC(=O)NCCN3CCOCC3)cc2C1 (configuration not stated) | -42.6 | 10.3 µM [falling, partial curve, poor fit] | 25.9 µM [falling, partial curve, poor fit]
39 | Cc1ccc(C2=NN(C(=S)Nc3ccccc3)C(c3ccco3)C2)cc1 (configuration not stated) | -2.98 | – | 11.6 µM [rising, partial curve]
40 | CCn1ccnc1CN(C)C(=O)CC1C(=O)NCCN1Cc1c(F)cccc1Cl (configuration not stated) | -14 | – | 29.1 µM [falling, single point]
41 | Cc1cc(-c2c(C)[nH]n(-c3ccc(Cl)cc3)c2=O)n(-c2ccccc2)n1 | -19.4 | – | 20.6 µM [falling, single point]
42 | Cc1ccc(S(=O)(=O)/N=C2/C=C(Sc3ncn[nH]3)C(=O)c3ccccc32)c(C)c1 | -44.3 | 11.6 µM [falling, partial curve, poor fit] | 8.2 µM [falling, partial curve]
43 | CCN(CC)S(=O)(=O)c1cccc(C(=O)N/N=C/c2ccc([N+](=O)[O-])o2)c1 | -39.6 | 2.31 µM [falling, full curve] | –
44 | CC1(C)CC(=O)C(C(c2ccncc2)C2C(=O)CC(C)(C)CC2=O)C(=O)C1 | 25.3 | 0.146 µM [falling, full curve, poor fit] | 29.1 µM [falling, single point]
45 | O=C(NCc1ccc2c(c1)OCO2)C1CCCN1C(=O)Nc1cccc(Cl)c1 (configuration not stated) | 25.2 | – | 2.06 µM [rising, partial curve]
46 | COc1cc(-c2nc(CN(C)Cc3nnc(C)o3)c(C)o2)ccc1F | -1.02 | – | 6.51 µM [falling, single point]
47 | Cn1c(=O)c2cc(S(=O)(=O)NCCC(=O)Nc3ccc(F)cc3F)ccc2n(C)c1=O | -32.8 | – | 29.1 µM [rising, single point]
48 | CSc1cccc(NC(=O)CSc2ccc(Cl)cc2)c1 | 68.3 | 20.6 µM [rising, single point] | –
49 | O=C(COc1ccc(Cl)cc1)NCCN1CCCC1 | 9.94 | – | 6.51 µM [falling, single point]
50 | O=C(Cn1c(NCCCO)nc2ccccc21)c1ccc(Cl)cc1Cl | -37.6 | 18.4 µM [falling, partial curve, poor fit] | –
51 | CCCn1c(C)nnc1SCC(=O)NC1CCCCC1 | -4.9 | – | –
52 | CC1CCN(C(=O)CN2C(=O)C(=O)c3ccccc32)CC1 | 16.4 | – | –
53 | O=C(COC(=O)c1nc(Cl)ccc1Cl)NNC(=O)c1ccccc1 | -19.4 | 0.116 µM [falling, full curve, poor fit] | 0.651 µM [falling, full curve]
54 | CN(C)/C=C1\C(=O)N(c2ccc(Cl)cc2)CS1(=O)=O | -24.1 | – | 0.259 µM [rising, full curve, poor fit]
55 | O=C(NC1CCCCC1)C(c1ccc(F)cc1)N(C(=O)c1csnn1)C1CCCC1 (configuration not stated) | -7.62 | – | 29.1 µM [rising, partial curve, poor fit]

Retrieved by structure from above:
Row | SMILES | cell number change [%] | AC50 [1] | AC50 [2]
49 | O=C(COc1ccc(Cl)cc1)NCCN1CCCC1 | 9.94 | – | 6.51 µM [falling, single point]
39 | Cc1ccc(C2=NN(C(=S)Nc3ccccc3)C(c3ccco3)C2)cc1 (configuration not stated) | -2.98 | – | 11.6 µM [rising, partial curve]
